Measured values from EP4695300A2 (dated 2026).
Results are given in words; binding and its absence hold for the method and conditions named. Binding seen in cells or lysates may run through a third protein. These calls come from enrichment with a bait or labelling near it, and not all partners need be listed. Sequences can lack the tags named with a protein.

Protein sequences, listed by entry. Tags and fused reporters are not part of them.
UniProt P08579: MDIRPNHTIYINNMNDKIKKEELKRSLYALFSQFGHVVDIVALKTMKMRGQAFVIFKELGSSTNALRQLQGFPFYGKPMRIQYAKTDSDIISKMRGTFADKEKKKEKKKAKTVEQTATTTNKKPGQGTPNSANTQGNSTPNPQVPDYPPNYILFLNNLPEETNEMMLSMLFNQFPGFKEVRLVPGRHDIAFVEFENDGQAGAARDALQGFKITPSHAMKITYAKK

Legend:
Assay in all cases: co-immunoprecipitation with 8C7 from A431 Brij-O10 lysate, mass spectrometry
SNRPB2 (human) = SNRPB2 (human) (UniProt P08579)
LMAN1 (human) = molecular target: T1, LMAN1 (human) (UniProt P49257)
T1 sequence (looked up): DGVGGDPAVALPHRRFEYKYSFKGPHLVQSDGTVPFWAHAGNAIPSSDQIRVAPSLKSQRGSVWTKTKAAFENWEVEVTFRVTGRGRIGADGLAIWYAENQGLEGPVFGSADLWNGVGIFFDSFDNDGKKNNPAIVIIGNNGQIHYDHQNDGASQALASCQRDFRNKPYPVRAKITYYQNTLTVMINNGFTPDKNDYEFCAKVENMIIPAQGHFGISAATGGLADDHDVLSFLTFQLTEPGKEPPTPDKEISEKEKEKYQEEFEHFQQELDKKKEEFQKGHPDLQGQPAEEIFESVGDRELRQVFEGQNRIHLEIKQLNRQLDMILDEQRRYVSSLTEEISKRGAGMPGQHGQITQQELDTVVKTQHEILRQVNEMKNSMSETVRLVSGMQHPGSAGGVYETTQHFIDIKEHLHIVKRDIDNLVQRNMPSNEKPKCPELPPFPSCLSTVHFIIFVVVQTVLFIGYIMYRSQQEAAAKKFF

EIF2a (human) = molecular target: EIF2a (human)

Measured: binding

B1: Prostaglandin F2 Receptor Inhibitor (PTGFRN), expressed by cells (receptor, human, UniProt Q9P2B2 26-879, looked up)
chain: VPTATLVRVVGTELVIPCNVSDYDGPSEQNFDWSFSSLGSSFVELASTWEVGFPAQLYQERLQRGEILLRRTANDAVELHIKNVQPSDQGHYKCSTPSTDATVQGNYEDTVQVKVLADSLHVGPSARPPPSLSLREGEPFELRCTAASASPLHTHLALLWEVHRGPARRSVLALTHEGRFHPGLGYEQRYHSGDVRLDTVGSDAYRLSVSRALSADQGSYRCIVSEWIAEQGNWQEIQEKAVEVATVVIQPSVLRAAVPKNVSVAEGKELDLTCNITTDRADDVRPEVTWSFSRMPDSTLPGSRVLARLDRDSLVHSSPHVALSHVDARSYHLLVRDVSKENSGYYYCHVSLWAPGHNRSWHKVAEAVSSPAGVGVTWLEPDYQVYLNASKVPGFADDPTELACRVVDTKSGEANVRFTVSWYYRMNRRSDNVVTSELLAVMDGDWTLKYGERSKQRAQDGDFIFSKEHTDTFNFRIQRTTEEDRGNYYCVVSAWTKQRNNSWVKSKDVFSKPVNIFWALEDSVLVVKARQPKPFFAAGNTFEMTCKVSSKNIKSPRYSVLIMAEKPVGDLSSPNETKYIISLDQDSVVKLENWTDASRVDGVVLEKVQEDEFRYRMYQTQVSDAGLYRCMVTAWSPVRGSLWREAATSLSNPIEIDFQTSGPIFNASVHSDTPSVIRGDLIKLFCIITVEGAALDPDDMAFDVSWFAVHSFGLDKAPVLLSSLDRKGIVTTSRRDWKSDLSLERVSVLEFLLQVHGSEDQDFGNYYCSVTPWVKSPTGSWQKEAEIHSKPVFITVKMDVLNAFKYPLLIGVGLSTVIGLLSCLIGYCSSHWCCKKEVQETRRERRRLMSMEMD
binds: all assays above
